In patent publication US6593098:
These are yes or no findings as the source states them, for the method shown. Some results given as binding are weak or reduced against the parent protein; the word gives no strength.

Target: T1, 572 amino acid kinetochore-binding region of CENP-F (amino acids 2638-3210) bait (UniProt P49454)
T1 sequence (looked up): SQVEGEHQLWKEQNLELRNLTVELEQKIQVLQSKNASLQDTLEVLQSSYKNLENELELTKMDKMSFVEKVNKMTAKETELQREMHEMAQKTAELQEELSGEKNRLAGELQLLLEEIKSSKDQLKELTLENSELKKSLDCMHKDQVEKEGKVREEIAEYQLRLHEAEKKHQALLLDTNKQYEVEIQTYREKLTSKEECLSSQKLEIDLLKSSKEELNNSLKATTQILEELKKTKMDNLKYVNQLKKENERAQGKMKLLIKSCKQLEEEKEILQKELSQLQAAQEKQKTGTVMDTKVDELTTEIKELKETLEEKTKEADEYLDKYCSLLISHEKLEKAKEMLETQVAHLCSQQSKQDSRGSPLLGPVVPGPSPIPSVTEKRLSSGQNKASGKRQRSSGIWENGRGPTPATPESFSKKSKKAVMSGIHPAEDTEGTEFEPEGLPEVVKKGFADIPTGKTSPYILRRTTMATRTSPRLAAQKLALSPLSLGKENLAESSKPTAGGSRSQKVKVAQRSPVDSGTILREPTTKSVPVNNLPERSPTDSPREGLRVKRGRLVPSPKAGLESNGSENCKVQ
Assay: yeast two-hybrid screen

binding: binds
B1: huBUB1B two-hybrid clone Fint 309 (protein)
chain: KQALSSHMYSASLLRLSQPAAGGVLTCEAELGVEACRLTDTDAAIAEDPPGSAAIAEDPPDAIAGLQAEWMQMSSLGTVDAPNFIVGNPWDDKLIFKLLSGLSKPVSSYPNTFEWQCKLPAIKPKTEFQLGSKLVYVHHLLGEGAFAQVYEATQGDLNDAKNKQKFVLKVQKPANPWEFYIGTQLMERLKPSMQHMFMKFYSAHLFQNGSVLVGELYSYGTLLNAINLYKNTPEKVMPQGLVISFAMRMLYMIEQVHDCEIIHGDIKPDNFILGNGFLEQDDEDDLSAGLALIDLGQSIDMKLFPKGTIFTAKCETSGFQCVEMLSNKPWNYQIDYFGVAATVYCMLFGTYMKVKNEGGECKPEGLFRRLPHLDMWNEFFHVMLNIPDCHHLPSLDLLRQKLKKVFQQHYTNKIRALRNRLIVLLLECKRSRK
